Laboratory results taken from US20250326791A1.
No constants are given. Whether binding was seen depends on the method and setting. Some binding calls cover weakened binding; strength is not graded here.

Target: T1, L-fucose bearing asialofetuin (model glycoprotein) (UniProt P12763)
T1 sequence (desialylated glycoprotein bearing L-fucose, looked up): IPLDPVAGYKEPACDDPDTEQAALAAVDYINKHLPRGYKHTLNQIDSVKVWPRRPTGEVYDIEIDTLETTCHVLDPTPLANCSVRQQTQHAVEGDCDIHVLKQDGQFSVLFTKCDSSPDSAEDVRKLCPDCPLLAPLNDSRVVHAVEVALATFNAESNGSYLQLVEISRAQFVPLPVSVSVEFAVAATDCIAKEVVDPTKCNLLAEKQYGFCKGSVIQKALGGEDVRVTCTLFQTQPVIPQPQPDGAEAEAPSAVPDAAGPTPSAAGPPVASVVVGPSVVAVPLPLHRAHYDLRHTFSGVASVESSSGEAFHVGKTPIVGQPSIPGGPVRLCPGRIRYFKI
Assay: ITC

## RVFSLCNATYPYKGACP (cyclo: disulfide bond Cys6-Cys16) [Control: RVFSL-cyclo[…]P]
  binding: binds
